Data as given in paper PMC11968270.
Results are given in words; binding and its absence hold for the method and conditions named. A result given as binding can be weak or reduced; the word gives no strength.

The chains behind the UniProt entries cited, without tags or fusion partners. Where a name states a change or a piece, a line headed by the entry shows the natural chain unless it says otherwise.
UniProt A0A3Q7I3M4: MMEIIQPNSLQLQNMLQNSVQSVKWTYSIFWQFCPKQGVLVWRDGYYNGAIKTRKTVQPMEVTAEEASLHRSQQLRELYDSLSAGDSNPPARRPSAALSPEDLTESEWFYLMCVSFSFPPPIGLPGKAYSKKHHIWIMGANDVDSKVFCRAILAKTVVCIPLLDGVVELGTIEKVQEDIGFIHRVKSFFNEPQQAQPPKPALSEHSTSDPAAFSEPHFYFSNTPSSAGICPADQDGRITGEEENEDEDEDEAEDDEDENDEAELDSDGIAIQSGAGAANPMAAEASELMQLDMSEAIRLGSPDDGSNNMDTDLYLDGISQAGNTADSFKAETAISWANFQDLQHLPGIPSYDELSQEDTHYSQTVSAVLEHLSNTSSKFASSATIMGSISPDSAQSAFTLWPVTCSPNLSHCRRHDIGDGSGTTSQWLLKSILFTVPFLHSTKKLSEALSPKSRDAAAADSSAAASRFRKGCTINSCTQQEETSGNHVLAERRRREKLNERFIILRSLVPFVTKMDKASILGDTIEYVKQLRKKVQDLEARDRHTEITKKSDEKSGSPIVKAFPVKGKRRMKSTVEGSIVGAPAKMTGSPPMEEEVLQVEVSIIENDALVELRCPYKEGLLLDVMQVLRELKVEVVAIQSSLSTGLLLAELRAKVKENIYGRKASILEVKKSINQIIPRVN

Molecular target: GST-SlTTG1 (tomato (Solanum lycopersicum))
Assay: pull-down; purified His-tagged and GST-tagged proteins (or GST) mixed equally, incubated with GST agarose at 4 °C for 2 h, washed at least 10 times with PBS; immunoblot with anti-GST and anti-His; both purified

His-SlbHLH150 (from UniProt A0A3Q7I3M4)
binding: binds
